# Assay results reported in patent publication US20260061085A1, “CYCLIC PEPTIDE AND PREPARATION METHOD THEREFOR, AND COMPLEX COMPRISING SAME AND USE THEREOF” (HEXIN (SUZHOU) PHARMACEUTICAL TECHNOLOGY CO., LTD., priority 2022, published 2026).
# Part of at least one peptide drawing is inferred or uncertain, most often the ends. Peptide text beside a SMILES is read from it.
# System: HT-1080 cells
# Experiment: Relative cell uptake of Cy3 fluorescent peptides by HT-1080 cells
# Format: cell-based, human
# Settings: Cy3 fluorescent peptide, 37° C. 30 min, multiple of KE5-Cy3 uptake taken as 1.00
# Protocol: The binding affinity of the polypeptides in the examples and comparative examples to an HT-1080 cell line was identified through cell uptake studies.
# The human fibrosarcoma cell line HT-1080 was cultured in Dulbecco's Modified Eagle Medium (DMEM) (Gibco) mixed with 10% sterile filtered fetal bovine serum (FBS) and 1% penicillin-streptomycin antibiotic solution. The cell culture was maintained in a controlled environment at 37° C. and 5% CO2, and subculture was performed every 3-4 days. 24 hours prior to the experiment, cells were seeded in a 96-well plate (5000 cells per well) and cultured overnight until the cells adhered to a wall. […]
# After incubation at 37° C. for 30 min, the cells were washed twice with PBS, an intracellular fluorescence intensity was measured using a fluorescence microplate reader (with an […]) to evaluate the uptake of KE5-Cy3 fluorescent peptide by HT-1080 cells.
# 10 μL of CCK-8 were added to each group of cells and incubated for 4 h, the cells were then read using a microplate reader (with a wavelength of 490 nm), and errors in fluorescence intensity of each group of cells caused by difference in a number of cells was corrected by CCK-8. […]
# A relative cell uptake (RCU) for each APN-Cy3 fluorescent peptide relative to the KE5-Cy3 fluorescent peptide was calculated using the following formula: […]
structure (smiles),measurement,value
"N=C(N)NCCC[C@@H]1NC(=O)CNC(=O)[C@H](CC(N)=O)NC(=O)[C@H](CCCCN)NC(=O)[C@H](CCC(=O)O)NC1=O [Comparative Example 1, cyclo(NGREK), reference compound] (cyclo(EKNGR))",RCU (relative cell uptake),1.00
